{
  "source": "PubChem BioAssay AID504834",
  "about": "(National Center for Advancing Translational Sciences (NCATS), 2011)",
  "note": "About 22,000 (6.9%) of roughly 320,000 compounds were called active. The inconclusive results got no clear call from the source; some entries with a clear call stand among them for comparison. Calls follow the shape of the dose curve; as a rule, active = well fitted inhibition curve with a large enough effect; inconclusive = small, poorly fitted or top-dose-only effect, or another doubt; inactive = no such curve, though single readings can be large or run the other way. A potency beside an inconclusive call is a rough fit, not a confirmed value. % is scaled to controls: 0 for no effect and ±100 for the full control effect; potency is read from the fitted curve at half-maximal effect.",
  "data": [
    {"test": "Primary qHTS for delayed death inhibitors of the malarial parasite plastid, 96 hour incubation", "details": "P. falciparum luciferase reporter growth; series mostly up to 28.7 µM; activity change, negative = inhibition: at the top concentration", "in_short": "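P. falciparum expressing integrated firefly luciferase, in erythrocytes at 2% hematocrit, 0.05% parasitemia, incubated with compounds 96 h at 37 C, 5% CO2. Growth inhibition read as loss of luminescence; two-generation exposure targets delayed-death apicoplast inhibitors.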", "values": [
      {"smiles": "COc1cc(/C=C2\\CCc3c2nc2ccccc2c3C(=O)O)cc(OC)c1OC", "activity change, negative = inhibition": "inactive: 225%"},
      {"smiles": "COc1cccc(/C=N/NC(=O)c2cccc([N+](=O)[O-])c2)c1OS(=O)(=O)c1ccc(C)cc1", "Potency": "inconclusive: 7.38 µM [inhibitor, single point]"},
      {"smiles": "O=C(Nc1ccc(F)cc1)N1CCC(c2nc3c(nnn3Cc3cccc(Cl)c3)c(=O)[nH]2)CC1", "activity change, negative = inhibition": "inactive: 319%"},
      {"smiles": "CC(=O)N1N=C(c2ccncc2)CC1c1ccccc1O", "note": "(stereo unspecified)", "Potency": "inconclusive: 18.5 µM [inhibitor, single point]"},
      {"smiles": "COc1ccc(C(=O)Nc2cc(C(F)(F)F)ccc2-n2cnc3ccccc32)cc1", "Potency": "inconclusive: 10.4 µM [inhibitor, single point]"},
      {"smiles": "C[C@H](NC(C)(C)C)C(=O)c1cccc(Cl)c1", "Potency": "inconclusive: 2.39 µM [inhibitor, partial curve, poor fit]"},
      {"smiles": "Cc1ccc(NC(=O)COC(=O)CNC(=O)C2CCCCC2)c(Br)c1", "Potency": "inconclusive: 4.15 µM [inhibitor, single point]"},
      {"smiles": "COc1ccc(S(=O)(=O)N2CCN(C(=O)[C@@H]3CCCN3C(=O)c3cccs3)CC2)cc1", "Potency": "inconclusive: 4.65 µM [inhibitor, partial curve]"},
      {"smiles": "O=C(NCc1ccccc1)C1COc2ccccc2O1", "note": "(stereo unspecified)", "activity change, negative = inhibition": "inactive: 33.7%"},
      {"smiles": "CN1C(=O)/C(=C/C=C/c2ccco2)C(=O)NC1=S", "activity change, negative = inhibition": "inactive: 31.7%"},
      {"smiles": "O=C(c1cccs1)N1CCCN(c2ncnc3scc(-c4ccccc4)c23)CC1", "Potency": "active: 10.4 µM"},
      {"smiles": "COc1ccc2ccc(O)c(CN3CC=C(c4ccccc4)CC3)c2c1", "Potency": "inconclusive: 1.65 µM [inhibitor, full curve]"},
      {"smiles": "COCCN(CC(=O)NCc1ccc2c(c1)OCO2)C(=O)CCC(=O)Nc1nccs1", "Potency": "inconclusive: 18.5 µM [inhibitor, partial curve, poor fit]"},
      {"smiles": "Cc1nc(Cc2ccc(OC(C)C)cc2)[nH]c(=O)c1CC(=O)O", "activity change, negative = inhibition": "inactive: -41.1% [at 5.75 µM]"},
      {"smiles": "Cn1c(=O)cc(OCC(=O)NCc2cccs2)c2ccccc21", "Potency": "inconclusive: 11.7 µM [inhibitor, partial curve]"},
      {"smiles": "CC1C/C(=C/c2ccco2)C(=O)/C(=C/c2ccco2)C1", "note": "(stereo unspecified)", "Potency": "active: 8.28 µM"},
      {"smiles": "CC(CO)(CO)N=Cc1c(O)n(-c2cccc3ccccc23)c(=O)[nH]c1=O", "Potency": "inconclusive: 0.0029 µM [inhibitor, full curve, poor fit]"},
      {"smiles": "Cc1cccc(Oc2ncnc3onc(C)c23)c1C", "Potency": "inconclusive: 0.329 µM [inhibitor, full curve]"},
      {"smiles": "O=C(NCCCN1CCOCC1)c1cc(-c2ccccc2F)no1", "Potency": "inconclusive: 16.5 µM [inhibitor, single point]"},
      {"smiles": "Cc1ccc(CNc2nc(N)c([N+](=O)[O-])c(NCc3ccccc3)n2)cc1", "activity change, negative = inhibition": "inactive: 3.78%"},
      {"smiles": "COc1ccc(CN2CCNC(=O)C2CC(=O)N(C)CC2CCOCC2)cc1C", "note": "(stereo unspecified)", "Potency": "inconclusive: 18.5 µM [inhibitor, single point]"},
      {"smiles": "Fc1ccc(OCCn2cnc(Cl)c2Cl)cc1", "activity change, negative = inhibition": "inactive: -9.26%"},
      {"smiles": "CCOc1ccc(Nc2ncnc3c2cnn3Cc2ccccc2)cc1", "Potency": "inconclusive: 10.4 µM [inhibitor, single point]"},
      {"smiles": "COC(=O)c1sccc1NC(=O)Nc1ccc(C)cc1C", "activity change, negative = inhibition": "inactive: -22.5%"},
      {"smiles": "Cc1ccc(S(=O)(=O)Oc2ccccc2/C=N/N=C(N)N)cc1", "Potency": "inconclusive: 14.7 µM [inhibitor, partial curve, poor fit]"},
      {"smiles": "CC(C)c1ccccc1NC(=O)C1CN(S(=O)(=O)c2ccccc2)CCN1S(=O)(=O)c1ccccc1", "note": "(stereo unspecified)", "Potency": "inconclusive: 18.5 µM [inhibitor, single point]"},
      {"smiles": "COc1ccc(C(=O)COC(=O)c2ccc(OC)c(OC)c2)cc1OC", "activity change, negative = inhibition": "inactive: 40.3%"},
      {"smiles": "Cc1c(C(=O)O)cccc1[N+](=O)[O-]", "Potency": "inconclusive: 16.5 µM [inhibitor, single point]"},
      {"smiles": "OC(CN1CC=C(c2ccccc2)CC1)c1ccccc1", "note": "(stereo unspecified)", "Potency": "inconclusive: 5.86 µM [inhibitor, partial curve]"},
      {"smiles": "CN(/N=C/C=C/c1ccccc1)C1=NS(=O)(=O)c2ccccc21", "Potency": "inconclusive: 2.62 µM [inhibitor, partial curve, poor fit]"},
      {"smiles": "Cc1ccc(-c2cn3nc(C)c(C)nc3n2)cc1", "Potency": "inconclusive: 2.08 µM [inhibitor, full curve, poor fit]"},
      {"smiles": "O=C(c1ccc(Cl)cc1[N+](=O)[O-])N1CCOCC1", "activity change, negative = inhibition": "inactive: 5.58%"},
      {"smiles": "NS(=O)(=O)c1ccc(CNS(=O)(=O)c2cccc3nonc23)cc1", "activity change, negative = inhibition": "inactive: 44.1%"},
      {"smiles": "CS(=O)(=O)c1ccc(C(=O)OCC(=O)c2ccc(Cl)s2)cc1", "activity change, negative = inhibition": "inactive: 28.5%"},
      {"smiles": "CCCNC(=O)c1cnc(Sc2ncc(C(F)(F)F)cc2Cl)n1C", "Potency": "inconclusive: 2.08 µM [inhibitor, partial curve, poor fit]"},
      {"smiles": "CN(CC(=O)Nc1cccc(F)c1)CC(=O)NC(c1ccccc1)c1ccccc1", "Potency": "inconclusive: 11.7 µM [inhibitor, partial curve, poor fit]"},
      {"smiles": "CCOC(=O)CSc1nc2ccccc2n1CC(=O)N(C(C)C)C(C)C", "Potency": "inconclusive: 1.65 µM [inhibitor, full curve, poor fit]"},
      {"smiles": "CC(C)C(=O)N(Cc1ccccc1)S(=O)(=O)c1ccc2c(c1)oc(=O)n2C", "Potency": "inconclusive: 13.1 µM [inhibitor, single point]"},
      {"smiles": "FC(F)Oc1ccc(C2N=C(c3ccccc3)NO2)cc1", "note": "(stereo unspecified)", "activity change, negative = inhibition": "inactive: 191%"},
      {"smiles": "O=C1c2ccc(Oc3ccc([N+](=O)[O-])cc3)cc2C(=O)N1CCCO", "Potency": "inconclusive: 2.94 µM [inhibitor, partial curve, poor fit]"},
      {"smiles": "Cc1ccc(S(=O)(=O)N(C)C)cc1NC(=O)CN1C(=O)NC2(CCCCCC2)C1=O", "Potency": "inconclusive: 6.57 µM [inhibitor, partial curve, poor fit]"},
      {"smiles": "CCOc1cccc(N2C(=O)CC(NCc3ccc(S(N)(=O)=O)cc3)C2=O)c1", "note": "(stereo unspecified)", "Potency": "inconclusive: 11.7 µM [inhibitor, single point]"},
      {"smiles": "Cc1ccc(/C=C/C(=O)Nn2cnnc2)cc1", "activity change, negative = inhibition": "inactive: 8.33%"},
      {"smiles": "Cc1cc(C(=O)NC2CCCN(Cc3ccccc3F)C2)n[nH]1", "note": "(stereo unspecified)", "Potency": "inconclusive: 14.7 µM [inhibitor, partial curve, poor fit]"},
      {"smiles": "O=S(=O)(/N=C(/Nc1nc2ccccc2s1)c1ccccc1)c1ccccc1", "activity change, negative = inhibition": "inactive: 108%"},
      {"smiles": "COc1ccc(OC)c(CNC(=O)C2CCC(=O)N2C(C)C)c1", "note": "(stereo unspecified)", "Potency": "inconclusive: 2.08 µM [inhibitor, partial curve]"},
      {"smiles": "N#Cc1ccc(CO/N=C/c2ccccc2)cc1", "activity change, negative = inhibition": "inactive: 66.8%"},
      {"smiles": "Cc1ccc(C)c2[nH]c(=O)c(CCNC(=O)c3ccc4c(c3)OCO4)cc12", "Potency": "inconclusive: 2.94 µM [inhibitor, partial curve, poor fit]"},
      {"smiles": "O=C(CCN1C(=O)S/C(=C\\c2ccc(F)cc2)C1=O)Nc1ccc(O)cc1C(=O)O", "Potency": "inconclusive: 14.7 µM [inhibitor, partial curve, poor fit]"},
      {"smiles": "CCc1cccc(CC)c1NC(=O)COC(=O)CC1c2ccccc2CCN1S(=O)(=O)c1ccc(F)cc1", "note": "(stereo unspecified)", "Potency": "inconclusive: 18.5 µM [inhibitor, single point]"},
      {"smiles": "Cc1cccc2sc(N(CCCN(C)C)C(=O)c3ccc(Cl)s3)nc12", "Potency": "inconclusive: 1.04 µM [inhibitor, partial curve, poor fit]"},
      {"smiles": "Oc1ccc(/C=C/c2ccc3ccccc3n2)cc1", "Potency": "inconclusive: 18.5 µM [inhibitor, single point]"},
      {"smiles": "CC(C)OC(=O)c1ccc(COc2ccc3ccc(=O)oc3c2)o1", "activity change, negative = inhibition": "inactive: 18.6%"},
      {"smiles": "O=C(CSc1nnc(SCc2ccc(Cl)cc2)s1)N/N=C/c1c(Cl)cccc1Cl", "Potency": "inconclusive: 18.5 µM [inhibitor, single point]"},
      {"smiles": "COc1ccccc1NC(=S)N=Nc1c(O)[nH]c2ccc(Br)cc12", "Potency": "active: 1.04 µM"},
      {"smiles": "Cn1c(=O)c2c(ncn2CC(=O)N2CCN(C(=O)c3ccco3)CC2)n(C)c1=O", "activity change, negative = inhibition": "inactive: 2.19%"},
      {"smiles": "C[n+]1c(-c2ccccc2)cc(-c2ccc(O)cc2)cc1-c1ccccc1", "Potency": "active: 2.08 µM"},
      {"smiles": "c1ccc(C[C@H]2CNCCN2CCc2cccc3ccccc23)cc1", "Potency": "inconclusive: 10.4 µM [inhibitor, single point]"},
      {"smiles": "Cc1ccc(-c2cc(C(=O)N/N=C/c3c(C)nn(-c4ccccc4)c3C)n[nH]2)s1", "activity change, negative = inhibition": "inactive: 59.8%"},
      {"smiles": "CCc1cc2c(cc3c(=O)n(CC(=O)NCCCN4CC(C)CC(C)C4)ncn32)s1", "note": "(stereo unspecified)", "Potency": "inconclusive: 1.17 µM [inhibitor, partial curve, poor fit]"},
      {"smiles": "C=CCn1c(SCC(=O)Nc2ncc(Cc3ccc(C)c(Cl)c3)s2)nnc1-c1ccncc1", "Potency": "inconclusive: 11.7 µM [inhibitor, partial curve, poor fit]"},
      {"smiles": "Cc1nn(-c2ccccc2)c(C)c1C(=O)OCC(=O)Nc1cccc(S(N)(=O)=O)c1", "Potency": "inconclusive: 13.1 µM [inhibitor, single point]"},
      {"smiles": "S=c1[nH]nc(COc2ccccc2)n1/N=C/C=C/c1ccccc1", "activity change, negative = inhibition": "inactive: 18.7%"},
      {"smiles": "Cc1oc(-c2cccs2)nc1CN1CC[C@@](O)(c2ccccc2)[C@H]2CCCC[C@@H]21", "activity change, negative = inhibition": "inactive: 3.49%"},
      {"smiles": "CC1=CC(c2ccc(Cl)cc2)n2nc(NS(=O)(=O)c3ccc(C)cc3)nc2N1", "note": "(stereo unspecified)", "activity change, negative = inhibition": "inactive: 11.4%"},
      {"smiles": "COc1nnc(-c2ccc(N3CCCCC3)c(NC(C)=O)c2)c2ccccc12", "Potency": "inconclusive: 9.28 µM [inhibitor, single point]"},
      {"smiles": "Cc1cccc2c(C(=O)Nn3cnnc3)cc(-c3ccccc3Cl)nc12", "Potency": "inconclusive: 18.5 µM [inhibitor, single point]"},
      {"smiles": "Cc1cc(NC(=O)CSc2nnc(-c3cccnc3)n2C)no1", "activity change, negative = inhibition": "inactive: -26.5%"},
      {"smiles": "Cc1cc(C)nc(NC(=O)CSc2nn(-c3ccccc3)c(=S)s2)n1", "activity change, negative = inhibition": "inactive: 61.8%"},
      {"smiles": "CC(C)C[C@H](NC(=O)NC1CCCc2ccccc21)C(=O)O", "note": "(stereo partly specified)", "activity change, negative = inhibition": "inactive: 17.4%"},
      {"smiles": "COc1ccc(CCN2CCCC(CN(C)C(=O)c3ccoc3C)C2)cc1", "note": "(stereo unspecified)", "Potency": "inconclusive: 6.57 µM [inhibitor, partial curve, poor fit]"}
    ]}
  ]
}
